We go through two substances from publication PMC5964248.

By UniProt entry, the sequences of proteins in these tests, tags left out.
UniProt Q86XT4: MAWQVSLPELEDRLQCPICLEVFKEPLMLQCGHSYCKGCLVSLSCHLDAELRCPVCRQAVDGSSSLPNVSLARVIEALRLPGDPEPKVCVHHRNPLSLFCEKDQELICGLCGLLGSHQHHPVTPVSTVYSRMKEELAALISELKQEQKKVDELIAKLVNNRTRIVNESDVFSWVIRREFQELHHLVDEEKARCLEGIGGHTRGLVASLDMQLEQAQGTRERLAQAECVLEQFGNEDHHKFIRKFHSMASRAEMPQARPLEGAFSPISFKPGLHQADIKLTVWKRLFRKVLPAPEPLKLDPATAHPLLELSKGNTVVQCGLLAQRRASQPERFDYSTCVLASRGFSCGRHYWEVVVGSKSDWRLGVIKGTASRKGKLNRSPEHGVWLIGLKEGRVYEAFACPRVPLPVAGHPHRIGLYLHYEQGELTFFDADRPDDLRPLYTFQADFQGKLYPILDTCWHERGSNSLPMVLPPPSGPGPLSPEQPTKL
UniProt O95863: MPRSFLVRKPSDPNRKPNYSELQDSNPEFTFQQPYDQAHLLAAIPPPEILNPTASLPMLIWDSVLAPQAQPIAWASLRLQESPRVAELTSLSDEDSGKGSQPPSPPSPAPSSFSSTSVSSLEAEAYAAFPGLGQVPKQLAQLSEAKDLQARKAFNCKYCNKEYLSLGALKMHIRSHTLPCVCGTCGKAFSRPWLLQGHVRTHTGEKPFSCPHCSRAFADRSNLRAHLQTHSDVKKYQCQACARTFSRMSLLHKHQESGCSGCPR

For experiment [1], the target named is TRIM50 protein expressed by the in vitro transcription and translation system (human) (UniProt Q86XT4). In words: co-IP; TRIM50 and SNAIL separately expressed by in vitro transcription and translation, mixed together, immunoprecipitated by the TRIM50 antibody, western blot by SNAIL antibody. (A western blot detects proteins with antibodies after separation by electrophoresis.)

Experiment [2] deals with Tripartite motif-containing 50 (TRIM50), expressed from the TRIM50 plasmid in HCC cells (human) (UniProt Q86XT4). In words: co-IP; BEL7402 and HepG2 cells transfected with TRIM50 plasmid or mock control; immunoprecipitation from lysates and western blot.
The target in experiment [3] is TRIM50 in cytoplasmic and nuclear fractions of HepG2 cells (human (endogenous in HepG2)) (UniProt Q86XT4). The experiment in a line: co-IP; cytoplasmic and nuclear fractions prepared from HepG2 cells; co-IP in each fraction.

These are yes or no findings as the source states them, for the method shown. Binding seen in cells or lysates may run through a third protein. Some entries that bind do so weakly or less than the wild type.

For “SNAIL protein expressed by the in vitro transcription and translation system (from UniProt O95863 1-264)”, in experiment [1], the binding result is “binds”.

With “SNAIL protein in HCC cells (from UniProt O95863 1-264)”, the binding entry in experiment [2] and in experiment [3] was “binds” in each case.
